Measurements reported in PubChem BioAssay AID1224830 (NIAID, 2016).
In all, the deposit lists about 18,000 reagents; shown is an unselected part. Of all reagents, about 2,900 (16%) are marked active. 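Calls are made per well; low scores hint the gene aids the LPS response, high scores that it dampens it.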 Repeated entries: four replicate wells of each siRNA pool.

- Assay: 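Genes whose knock-down alters the TNF-alpha reporter response to LPS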 (primary screen)
- System: human THP-1 monocytic leukaemia cells, TNF dual-luciferase reporter clone, PMA-differentiated to macrophage-like cells
- Reagent: siRNA pool against human genes, 50 nM
- Duration: LPS for 4 h, given about 3 days after siRNA transfection
- Challenge: bacterial LPS (TLR4 ligand), 10 ng/ml
- Measurement: 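Ratio of firefly to renilla light, scaled to the plate median and expressed as a robust z-score per replicate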
- Direction: TNF reporter robust z-score: higher = stronger TNF reporter response to LPS
- Rule for the call: 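Each well counts as active if its z-score is over 2.8 or under -1.5; controls are left without a call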

Target gene | TNF reporter robust z-score | Call
MMAA | 1.46 | inactive
MMAA | 0.27 | inactive
MMAA | 0.89 | inactive
MMAA | 0.63 | inactive
VAMP8 | 0.37 | inactive
VAMP8 | 0.5 | inactive
VAMP8 | -0.39 | inactive
VAMP8 | 3.35 | active
RPRM | 0.18 | inactive
RPRM | 1.1 | inactive
RPRM | 0.14 | inactive
RPRM | 1.08 | inactive
OR8U8 | 1.45 | inactive
OR8U8 | -0.7 | inactive
OR8U8 | 0.29 | inactive
OR8U8 | -0.39 | inactive
G0S2 | -0.62 | inactive
G0S2 | 0.19 | inactive
G0S2 | -0.1 | inactive
G0S2 | 0.04 | inactive
AOX1 | -0.62 | inactive
AOX1 | -0.23 | inactive
AOX1 | -0.67 | inactive
AOX1 | -0.34 | inactive
SCN7A | -0.36 | inactive
SCN7A | -0.63 | inactive
SCN7A | 0.03 | inactive
NMT2 | -0.56 | inactive
NMT2 | -0.83 | inactive
NMT2 | 0.42 | inactive
NMT2 | 0.18 | inactive
TMEM86B | 1.91 | inactive
TMEM86B | 3.08 | active
TMEM86B | 2.97 | active
TMEM86B | 0.04 | inactive
QTRT2 | 0.77 | inactive
QTRT2 | 2.12 | inactive
QTRT2 | -0.48 | inactive
QTRT2 | -0.34 | inactive
ZNF787 | -0.35 | inactive
ZNF787 | 1.3 | inactive
ZNF787 | 0.3 | inactive
ZNF787 | 0.89 | inactive
MNMIP1 | -0.4 | inactive
MNMIP1 | 0.83 | inactive
MNMIP1 | -0.09 | inactive
MNMIP1 | -0.59 | inactive
HNF4G | – | inactive
HNF4G | 0.83 | inactive
HNF4G | 1.47 | inactive
HNF4G | 1.51 | inactive
HNF4G | 3.88 | active
UFSP1 | 0.15 | inactive
UFSP1 | 0.66 | inactive
UFSP1 | -0.53 | inactive
UFSP1 | -0.26 | inactive
UROD | -0.92 | inactive
UROD | -0.62 | inactive
UROD | -1.17 | inactive
UROD | -0.99 | inactive
MNT | -0.23 | inactive
MNT | -0.07 | inactive
MNT | -0.55 | inactive
MNT | -0.18 | inactive
PAPPA2 | -0.91 | inactive
PAPPA2 | -0.64 | inactive
PAPPA2 | -0.48 | inactive
PAPPA2 | 0.14 | inactive
HOXC11 | -0.46 | inactive
HOXC11 | -0.38 | inactive
HOXC11 | -1.1 | inactive
HOXC11 | 0.54 | inactive
DDIT3 | 0.67 | inactive
DDIT3 | 2.22 | inactive
DDIT3 | 1.76 | inactive
DDIT3 | 3.01 | active
ZFYVE27 | -1.24 | inactive
ZFYVE27 | -0.27 | inactive
ZFYVE27 | -1.07 | inactive
ZFYVE27 | -1.06 | inactive
NDUFB5 | 0.95 | inactive
NDUFB5 | 0.98 | inactive
NDUFB5 | 0.43 | inactive
NDUFB5 | 0.88 | inactive
PRSS27 | -1.25 | inactive
PRSS27 | -0.69 | inactive
PRSS27 | -0.07 | inactive
PRSS27 | 0.15 | inactive
FAAH2 | 0.84 | inactive
FAAH2 | 0.81 | inactive
FAAH2 | -1.24 | inactive
LINC01588 | – | inactive
LINC01588 | -1.35 | inactive
LINC01588 | -1.03 | inactive
LINC01588 | -1.08 | inactive
LINC01588 | -1.06 | inactive
ENTPD4 | -1.25 | inactive
ENTPD4 | -1.14 | inactive
ENTPD4 | -1.88 | active
ENTPD4 | -1.4 | inactive
FBXL15 | -0.23 | inactive
FBXL15 | -1.09 | inactive
FBXL15 | -0.27 | inactive
FBXL15 | -1.1 | inactive
METTL17 | -0.82 | inactive
METTL17 | -0.21 | inactive
METTL17 | -0.39 | inactive
METTL17 | 0.77 | inactive
CASTOR1 | -0.43 | inactive
CASTOR1 | -0.8 | inactive
CASTOR1 | -1.02 | inactive
CASTOR1 | -0.89 | inactive
OR51V1 | -0.74 | inactive
OR51V1 | -0.8 | inactive
OR51V1 | -0.45 | inactive
RNASEH2A | -0.41 | inactive
RNASEH2A | -0.02 | inactive
RNASEH2A | 0.96 | inactive
RNASEH2A | 2.96 | active
AHCTF1 | -0.44 | inactive
AHCTF1 | 1.47 | inactive
AHCTF1 | 0.53 | inactive
AHCTF1 | 0.24 | inactive
DNAI1 | -0.09 | inactive
DNAI1 | 1.33 | inactive
DNAI1 | 1.94 | inactive
DNAI1 | 1.1 | inactive
PYDC2 | -0.86 | inactive
PYDC2 | 1.12 | inactive
PYDC2 | 0.48 | inactive
PYDC2 | 1.19 | inactive
PRG3 | 1.76 | inactive
PRG3 | 0.37 | inactive
PRG3 | 0.7 | inactive
PRG3 | 0.12 | inactive
ACTR1A | 0.03 | inactive
ACTR1A | 0.5 | inactive
ACTR1A | 1.9 | inactive
ACTR1A | 2.73 | inactive
RPS6KA5 | 2.07 | inactive
RPS6KA5 | 0.34 | inactive
RPS6KA5 | 1.21 | inactive
RPS6KA5 | 1.04 | inactive

Already shown: entries from further up.
Target gene | TNF reporter robust z-score | Call
ZNF787 | 0.89 | inactive
MNMIP1 | -0.4 | inactive
MNMIP1 | 0.83 | inactive
MNMIP1 | -0.09 | inactive
MNMIP1 | -0.59 | inactive
HNF4G | – | inactive
HNF4G | 0.83 | inactive
HNF4G | 1.47 | inactive
HNF4G | 1.51 | inactive
HNF4G | 3.88 | active
UFSP1 | 0.15 | inactive
UFSP1 | 0.66 | inactive
UFSP1 | -0.53 | inactive
UFSP1 | -0.26 | inactive
UROD | -0.92 | inactive
UROD | -0.62 | inactive
UROD | -1.17 | inactive
UROD | -0.99 | inactive
MNT | -0.23 | inactive
MNT | -0.07 | inactive
MNT | -0.55 | inactive
MNT | -0.18 | inactive
